Laboratory results taken from patent US20240415975A1 (ABTIS, published 2024).
These are yes or no findings as the source states them, for the method shown. Some binding calls cover weakened binding; strength is not graded here.

Sequences of proteins named here, by UniProt entry; tags and fusion partners are left off. A change or cut given only in a name is not applied to a line headed by its entry. A line that says so, or that is headed by a name, gives the form on record, which may keep a tag or linker.
Claudin 18.2 protein (CLDN18.2), expressed on cells (P56856, form named): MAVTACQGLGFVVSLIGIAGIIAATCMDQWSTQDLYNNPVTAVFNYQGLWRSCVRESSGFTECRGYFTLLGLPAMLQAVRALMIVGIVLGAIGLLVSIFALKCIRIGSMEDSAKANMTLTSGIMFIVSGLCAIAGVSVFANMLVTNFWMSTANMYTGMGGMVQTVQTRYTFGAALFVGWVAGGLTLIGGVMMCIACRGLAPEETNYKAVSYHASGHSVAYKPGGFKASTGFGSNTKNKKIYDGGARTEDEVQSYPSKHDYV

Experiments:
[1] = biological target: CLDN18.2 virus-like particle (VLP) in which the claudin 18.2 protein (CLDN18.2) was expressed (UniProt P56856); experiment: indirect ELISA on plate coated with CLDN18.2 VLP
[2] = biological target: Claudin 18.2 protein (CLDN18.2), expressed on cells (UniProt P56856); experiment: cell-based ELISA on CLDN18.2-positive cancer cell lines
[3] = biological target: Claudin 18.2 protein (CLDN18.2), expressed on cells (UniProt P56856); experiment: cell-based ELISA on MIA PaCa-2-CLDN18.2, SNU601 and PATU8988S cells
[4] = biological target: Claudin 18.2 protein (CLDN18.2), expressed on cells (UniProt P56856); experiment: cell-based ELISA on CHO-K1 cells transiently transfected with CLDN18.2

Measured: binding

B1: anti-Claudin 18.2 antibody (Anti-CLDN18.2 mAb) (antibody-A) (antibody, human IgG1, kappa, V domains shown)
VH: QVQLVESGGGVVQPGRSLRLSCAASGFSLTTYGVHWVRQAPGKGLEWVAVIWAGGSTNYNSALMSRFTISRDNSKNTLYLQMNSLRAEDTAVYYCARAAYYGNGLDYWGQGTMVTVSS
VL: DIVMTQSPLSLPVTPGEPASISCKSSQTLLNSGNQKNYLTWYLQKPGQSPQLLIYWASTGESGVPDRFSGSGSGTDFTLKISRVEAEDVGVYYCQNAYFYPFTFGGGTKVEIKR
notes: two heavy and two light chains; Elsewhere called an IgG1 type anti-CLDN18.2 antibody; Obtained from GenScript ProBio
binds: all assays above
